# Results from US20210400977A1, “META-DIAMIDE COMPOUNDS FOR CONTROLLING INVERTEBRATE PESTS” (FMC Corporation, priority 2018, published 2021).
# Some results were stated once for a whole list of compounds, not compound by compound.
# System: Western Flower Thrips (Frankliniellla occidentalis (Pergande))
# Assay: Test H: control of Western Flower Thrips through contact and/or systemic means
# Type: in vivo
# Conditions: sprayed at 50 ppm, assessed after 6 days, value is the plant damage limit
row,Structure (SMILES),control efficacy (30% or less plant damage and/or 100% mortality) [%]
1,CC(=O)NCc1cc(NC(=O)C2C(c3ccc(F)c(Cl)c3)C2(Cl)Cl)ccc1Cl (stereo not drawn) [Compound 27],≤ 30
2,O=C(NCc1cc(NC(=O)C2C(c3ccc(F)c(Cl)c3)C2(Cl)Cl)ccc1Cl)C1CC1 (stereo not drawn) [Compound 34],≤ 30
3,CCC(=O)NCc1cc(NC(=O)C2C(c3ccc(Cl)c(Cl)c3)C2(Cl)Cl)ccc1F (stereo not drawn) [Compound 43],≤ 30
4,CCOC(=O)NCc1cc(NC(=O)C2C(c3cc(Cl)cc(Cl)c3)C2(Cl)Cl)ccc1Cl (stereo not drawn) [Compound 49],≤ 30
5,CC(=O)NCc1cc(NC(=O)C2C(c3ccc(F)c(C(F)(F)F)c3)C2(Cl)Cl)ccc1F (stereo not drawn) [Compound 4],≤ 30
6,CS(=O)(=O)CC(=O)NCc1cc(NC(=O)C2C(c3ccc(F)c(C(F)(F)F)c3)C2(Cl)Cl)ccc1F (stereo not drawn) [Compound 162],≤ 30
7,CC(=O)NCc1cc(NC(=O)C2C(c3ccc(Cl)c(Cl)c3)C2(Cl)Cl)ccc1Cl (stereo not drawn) [Compound 75],≤ 30
8,O=C(NCc1cc(NC(=O)C2C(c3ccc(F)c(Cl)c3)C2(Cl)Cl)ccc1F)C1CC1(F)F (stereo not drawn) [Compound 172],≤ 30
9,O=C(NCc1cc(NC(=O)C2C(c3ccc(F)c(C(F)(F)F)c3)C2(Cl)Cl)ccc1F)C1CC1(F)F (stereo not drawn) [Compound 171],≤ 30
10,CC(=O)NCc1cc(NC(=O)C2C(c3ccc(F)cc3)C2(Cl)Cl)ccc1F (stereo not drawn) [Compound 6],≤ 30
11,O=C(Cc1ncccn1)NCc1cc(NC(=O)C2C(c3ccc(F)c(Cl)c3)C2(Cl)Cl)ccc1Cl (stereo not drawn) [Compound 185],≤ 30

# Same assay, conditions: sprayed at 250 ppm, assessed after 6 days, value is the plant damage limit
row,Structure (SMILES),control efficacy (30% or less plant damage and/or 100% mortality) [%]
1,O=C(NCc1cc(NC(=O)C2C(c3cccc(OC(F)(F)F)c3)C2(Cl)Cl)ccc1Cl)C1CC1 (stereo not drawn) [Compound 179],≤ 30
2,CC(=O)NCc1cc(NC(=O)C2C(c3ccc(F)c(Cl)c3)C2(Cl)Cl)ccc1Cl (stereo not drawn) [Compound 27],≤ 30
3,O=C(NCc1cc(NC(=O)C2C(c3ccc(F)c(Cl)c3)C2(Cl)Cl)ccc1Cl)C1CC1 (stereo not drawn) [Compound 34],≤ 30
4,CCC(=O)NCc1cc(NC(=O)C2C(c3ccc(Cl)c(Cl)c3)C2(Cl)Cl)ccc1F (stereo not drawn) [Compound 43],≤ 30
5,Cl.NCC(=O)NCc1cc(NC(=O)C2C(c3ccc(F)c(C(F)(F)F)c3)C2(Cl)Cl)ccc1F (stereo not drawn) [Compound 161],≤ 30
6,CCOC(=O)NCc1cc(NC(=O)C2C(c3cc(Cl)cc(Cl)c3)C2(Cl)Cl)ccc1Cl (stereo not drawn) [Compound 49],≤ 30
7,O=C(CC(F)(F)F)NCc1cc(NC(=O)C2C(c3ccc(F)c(Cl)c3)C2(Cl)Cl)ccc1Cl (stereo not drawn) [Compound 119],≤ 30
8,O=C(NCc1cc(NC(=O)C2C(c3ccc(F)c(F)c3)C2(Cl)Cl)ccc1Cl)C1CC1 (stereo not drawn) [Compound 96],≤ 30
9,O=C(CNCC(F)(F)F)NCc1cc(NC(=O)C2C(c3ccc(F)c(C(F)(F)F)c3)C2(Cl)Cl)ccc1F (stereo not drawn) [Compound 155],≤ 30
10,CC(=O)NCc1cc(NC(=O)C2C(c3ccc(F)c(C(F)(F)F)c3)C2(Cl)Cl)ccc1F (stereo not drawn) [Compound 4],≤ 30
11,CS(=O)(=O)CC(=O)NCc1cc(NC(=O)C2C(c3ccc(F)c(C(F)(F)F)c3)C2(Cl)Cl)ccc1F (stereo not drawn) [Compound 162],≤ 30
12,O=C(NCc1cc(NC(=O)C2C(c3ccc(F)c(Cl)c3)C2(Cl)Cl)ccc1F)C1CC1(F)F (stereo not drawn) [Compound 172],≤ 30
13,O=C(NCc1cc(NC(=O)C2C(c3ccc(F)c(C(F)(F)F)c3)C2(Cl)Cl)ccc1F)C1CC1(F)F (stereo not drawn) [Compound 171],≤ 30
14,CC(=O)NCc1cc(NC(=O)C2C(c3ccc(F)cc3)C2(Cl)Cl)ccc1F (stereo not drawn) [Compound 6],≤ 30
15,O=C(Cc1ncccn1)NCc1cc(NC(=O)C2C(c3ccc(F)c(Cl)c3)C2(Cl)Cl)ccc1Cl (stereo not drawn) [Compound 185],≤ 30

# System: diamondback moth (Plutella xylostella (L.))
# Assay: Test A: control of diamondback moth, foliar spray on mustard plant
# Type: in vivo
# Conditions: sprayed at 50 ppm, assessed after 6 days, value is the feeding damage limit
row,Structure (SMILES),control efficacy (40% or less feeding damage and/or 100% mortality) [%]
1,CC(=O)NCc1cc(NC(=O)C2C(c3ccc(F)c(Cl)c3)C2(Cl)Cl)ccc1Cl (stereo not drawn) [Compound 27],≤ 40
2,O=C(NCc1cc(NC(=O)C2C(c3ccc(F)c(Cl)c3)C2(Cl)Cl)ccc1Cl)C1CC1 (stereo not drawn) [Compound 34],≤ 40
3,CCC(=O)NCc1cc(NC(=O)C2C(c3ccc(Cl)c(Cl)c3)C2(Cl)Cl)ccc1F (stereo not drawn) [Compound 43],≤ 40
4,CCOC(=O)NCc1cc(NC(=O)C2C(c3cc(Cl)cc(Cl)c3)C2(Cl)Cl)ccc1Cl (stereo not drawn) [Compound 49],≤ 40
5,O=C(CC(F)(F)F)NCc1cc(NC(=O)C2C(c3ccc(F)c(Cl)c3)C2(Cl)Cl)ccc1Cl (stereo not drawn) [Compound 119],≤ 40
6,O=C(NCc1cc(NC(=O)C2C(c3ccc(F)c(F)c3)C2(Cl)Cl)ccc1Cl)C1CC1 (stereo not drawn) [Compound 96],≤ 40
7,O=C(CNCC(F)(F)F)NCc1cc(NC(=O)C2C(c3ccc(F)c(C(F)(F)F)c3)C2(Cl)Cl)ccc1F (stereo not drawn) [Compound 155],≤ 40
8,CC(=O)NCc1cc(NC(=O)C2C(c3ccc(F)c(C(F)(F)F)c3)C2(Cl)Cl)ccc1F (stereo not drawn) [Compound 4],≤ 40
9,CS(=O)(=O)CC(=O)NCc1cc(NC(=O)C2C(c3ccc(F)c(C(F)(F)F)c3)C2(Cl)Cl)ccc1F (stereo not drawn) [Compound 162],≤ 40
10,CC(=O)NCc1cc(NC(=O)C2C(c3ccc(Cl)c(Cl)c3)C2(Cl)Cl)ccc1Cl (stereo not drawn) [Compound 75],≤ 40
11,O=C(NCc1cc(NC(=O)C2C(c3ccc(F)c(Cl)c3)C2(Cl)Cl)ccc1F)C1CC1(F)F (stereo not drawn) [Compound 172],≤ 40
12,O=C(NCc1cc(NC(=O)C2C(c3ccc(F)c(C(F)(F)F)c3)C2(Cl)Cl)ccc1F)C1CC1(F)F (stereo not drawn) [Compound 171],≤ 40
13,CC(=O)NCc1cc(NC(=O)C2C(c3ccc(F)cc3)C2(Cl)Cl)ccc1F (stereo not drawn) [Compound 6],≤ 40

# Same assay, conditions: sprayed at 250 ppm, assessed after 6 days, value is the feeding damage limit
row,Structure (SMILES),control efficacy (40% or less feeding damage and/or 100% mortality) [%]
1,CC(=O)NCc1cc(NC(=O)C2C(c3ccc(F)c(Cl)c3)C2(Cl)Cl)ccc1Cl (stereo not drawn) [Compound 27],≤ 40
2,O=C(NCc1cc(NC(=O)C2C(c3ccc(F)c(Cl)c3)C2(Cl)Cl)ccc1Cl)C1CC1 (stereo not drawn) [Compound 34],≤ 40
3,CCC(=O)NCc1cc(NC(=O)C2C(c3ccc(Cl)c(Cl)c3)C2(Cl)Cl)ccc1F (stereo not drawn) [Compound 43],≤ 40
4,Cl.NCC(=O)NCc1cc(NC(=O)C2C(c3ccc(F)c(C(F)(F)F)c3)C2(Cl)Cl)ccc1F (stereo not drawn) [Compound 161],≤ 40
5,CCOC(=O)NCc1cc(NC(=O)C2C(c3cc(Cl)cc(Cl)c3)C2(Cl)Cl)ccc1Cl (stereo not drawn) [Compound 49],≤ 40
6,O=C(CNCC(F)(F)F)NCc1cc(NC(=O)C2C(c3ccc(F)c(C(F)(F)F)c3)C2(Cl)Cl)ccc1F (stereo not drawn) [Compound 155],≤ 40
7,CC(=O)NCc1cc(NC(=O)C2C(c3ccc(F)c(C(F)(F)F)c3)C2(Cl)Cl)ccc1F (stereo not drawn) [Compound 4],≤ 40
8,CS(=O)(=O)CC(=O)NCc1cc(NC(=O)C2C(c3ccc(F)c(C(F)(F)F)c3)C2(Cl)Cl)ccc1F (stereo not drawn) [Compound 162],≤ 40
9,CC(=O)NCc1cc(NC(=O)C2C(c3ccc(F)cc3)C2(Cl)Cl)ccc1F (stereo not drawn) [Compound 6],≤ 40

# System: fall armyworm (Spodoptera frugiperda (J. E. Smith))
# Assay: Test B: control of fall armyworm, foliar spray on corn (maize) plant
# Type: in vivo
# Conditions: sprayed at 50 ppm, assessed after 6 days, value is the feeding damage limit
row,Structure (SMILES),control efficacy (40% or less feeding damage and/or 100% mortality) [%]
1,O=C(NCc1cc(NC(=O)C2C(c3cccc(OC(F)(F)F)c3)C2(Cl)Cl)ccc1Cl)C1CC1 (stereo not drawn) [Compound 179],≤ 40
2,CC(=O)NCc1cc(NC(=O)C2C(c3ccc(F)c(Cl)c3)C2(Cl)Cl)ccc1Cl (stereo not drawn) [Compound 27],≤ 40
3,O=C(NCc1cc(NC(=O)C2C(c3ccc(F)c(Cl)c3)C2(Cl)Cl)ccc1Cl)C1CC1 (stereo not drawn) [Compound 34],≤ 40
4,CCC(=O)NCc1cc(NC(=O)C2C(c3ccc(Cl)c(Cl)c3)C2(Cl)Cl)ccc1F (stereo not drawn) [Compound 43],≤ 40
5,CCOC(=O)NCc1cc(NC(=O)C2C(c3cc(Cl)cc(Cl)c3)C2(Cl)Cl)ccc1Cl (stereo not drawn) [Compound 49],≤ 40
6,O=C(CC(F)(F)F)NCc1cc(NC(=O)C2C(c3ccc(F)c(Cl)c3)C2(Cl)Cl)ccc1Cl (stereo not drawn) [Compound 119],≤ 40
7,O=C(NCc1cc(NC(=O)C2C(c3ccc(F)c(F)c3)C2(Cl)Cl)ccc1Cl)C1CC1 (stereo not drawn) [Compound 96],≤ 40
8,CC(=O)NCc1cc(NC(=O)C2C(c3ccc(F)c(C(F)(F)F)c3)C2(Cl)Cl)ccc1F (stereo not drawn) [Compound 4],≤ 40
9,CS(=O)(=O)CC(=O)NCc1cc(NC(=O)C2C(c3ccc(F)c(C(F)(F)F)c3)C2(Cl)Cl)ccc1F (stereo not drawn) [Compound 162],≤ 40
10,CC(=O)NCc1cc(NC(=O)C2C(c3ccc(Cl)c(Cl)c3)C2(Cl)Cl)ccc1Cl (stereo not drawn) [Compound 75],≤ 40
11,O=C(NCc1cc(NC(=O)C2C(c3ccc(F)c(Cl)c3)C2(Cl)Cl)ccc1F)C1CC1(F)F (stereo not drawn) [Compound 172],≤ 40
12,O=C(NCc1cc(NC(=O)C2C(c3ccc(F)c(C(F)(F)F)c3)C2(Cl)Cl)ccc1F)C1CC1(F)F (stereo not drawn) [Compound 171],≤ 40
13,O=C(Cc1ncccn1)NCc1cc(NC(=O)C2C(c3ccc(F)c(Cl)c3)C2(Cl)Cl)ccc1Cl (stereo not drawn) [Compound 185],≤ 40

# Same assay, conditions: sprayed at 250 ppm, assessed after 6 days, value is the feeding damage limit
row,Structure (SMILES),control efficacy (40% or less feeding damage and/or 100% mortality) [%]
1,CC(=O)NCc1cc(NC(=O)C2C(c3ccc(F)c(Cl)c3)C2(Cl)Cl)ccc1Cl (stereo not drawn) [Compound 27],≤ 40
2,O=C(NCc1cc(NC(=O)C2C(c3ccc(F)c(Cl)c3)C2(Cl)Cl)ccc1Cl)C1CC1 (stereo not drawn) [Compound 34],≤ 40
3,CCC(=O)NCc1cc(NC(=O)C2C(c3ccc(Cl)c(Cl)c3)C2(Cl)Cl)ccc1F (stereo not drawn) [Compound 43],≤ 40
4,Cl.NCC(=O)NCc1cc(NC(=O)C2C(c3ccc(F)c(C(F)(F)F)c3)C2(Cl)Cl)ccc1F (stereo not drawn) [Compound 161],≤ 40
5,CCOC(=O)NCc1cc(NC(=O)C2C(c3cc(Cl)cc(Cl)c3)C2(Cl)Cl)ccc1Cl (stereo not drawn) [Compound 49],≤ 40
6,O=C(CNCC(F)(F)F)NCc1cc(NC(=O)C2C(c3ccc(F)c(C(F)(F)F)c3)C2(Cl)Cl)ccc1F (stereo not drawn) [Compound 155],≤ 40
7,CC(=O)NCc1cc(NC(=O)C2C(c3ccc(F)c(C(F)(F)F)c3)C2(Cl)Cl)ccc1F (stereo not drawn) [Compound 4],≤ 40
8,CS(=O)(=O)CC(=O)NCc1cc(NC(=O)C2C(c3ccc(F)c(C(F)(F)F)c3)C2(Cl)Cl)ccc1F (stereo not drawn) [Compound 162],≤ 40
